These are yes or no findings as the source states them, for the method shown. Binding seen in cells or lysates may run through a third protein. Some results given as binding are weak or reduced against the parent protein; the word gives no strength.
What was measured:
[1] = molecular target: BAF155 (human (endogenous in MDA-MB-468)) (UniProt Q92922); test: co-IP; immunoprecipitation with anti-BCL11A and anti-BAF155 antibodies after treatment with vehicle, JQ1, TP-064 and their combination; western blot of SWI/SNF subunits (Supplementary Figure S6I)
[2] = molecular target: B-cell lymphoma 11A (BCL11A) (human (endogenous in MDA-MB-468)) (UniProt Q9H165); test: as above

Protein sequences, listed by entry. Tags and fused reporters are not part of them.
UniProt Q92922: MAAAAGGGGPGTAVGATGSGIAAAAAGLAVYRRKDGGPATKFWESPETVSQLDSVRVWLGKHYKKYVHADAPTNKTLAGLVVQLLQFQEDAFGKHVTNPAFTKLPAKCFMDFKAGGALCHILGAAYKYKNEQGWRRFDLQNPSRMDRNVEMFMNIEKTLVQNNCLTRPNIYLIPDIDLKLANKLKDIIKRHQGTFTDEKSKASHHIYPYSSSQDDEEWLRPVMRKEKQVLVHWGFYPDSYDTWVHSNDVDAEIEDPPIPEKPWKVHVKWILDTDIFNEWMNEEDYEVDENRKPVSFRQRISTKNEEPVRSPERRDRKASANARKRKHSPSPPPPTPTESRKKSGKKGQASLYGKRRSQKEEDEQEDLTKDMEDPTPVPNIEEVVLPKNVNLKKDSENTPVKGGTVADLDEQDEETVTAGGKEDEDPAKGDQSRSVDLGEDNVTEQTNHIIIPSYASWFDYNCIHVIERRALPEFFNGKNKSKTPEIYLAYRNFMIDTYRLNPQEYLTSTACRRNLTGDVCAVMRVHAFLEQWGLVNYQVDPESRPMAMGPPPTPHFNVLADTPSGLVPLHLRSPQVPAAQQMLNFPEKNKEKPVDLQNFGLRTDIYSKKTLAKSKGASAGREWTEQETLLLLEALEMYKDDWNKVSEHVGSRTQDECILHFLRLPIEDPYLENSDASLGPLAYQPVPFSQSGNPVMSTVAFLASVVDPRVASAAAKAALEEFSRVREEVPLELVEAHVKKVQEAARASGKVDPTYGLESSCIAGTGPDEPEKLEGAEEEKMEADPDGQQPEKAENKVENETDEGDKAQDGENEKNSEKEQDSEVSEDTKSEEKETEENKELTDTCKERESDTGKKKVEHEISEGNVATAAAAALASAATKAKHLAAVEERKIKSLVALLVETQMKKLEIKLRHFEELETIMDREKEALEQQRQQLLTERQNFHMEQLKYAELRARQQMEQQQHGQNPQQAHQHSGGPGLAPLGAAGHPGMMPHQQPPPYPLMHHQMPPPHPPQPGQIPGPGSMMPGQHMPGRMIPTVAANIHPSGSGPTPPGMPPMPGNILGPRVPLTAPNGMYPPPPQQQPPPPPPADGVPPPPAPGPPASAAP
UniProt Q9H165: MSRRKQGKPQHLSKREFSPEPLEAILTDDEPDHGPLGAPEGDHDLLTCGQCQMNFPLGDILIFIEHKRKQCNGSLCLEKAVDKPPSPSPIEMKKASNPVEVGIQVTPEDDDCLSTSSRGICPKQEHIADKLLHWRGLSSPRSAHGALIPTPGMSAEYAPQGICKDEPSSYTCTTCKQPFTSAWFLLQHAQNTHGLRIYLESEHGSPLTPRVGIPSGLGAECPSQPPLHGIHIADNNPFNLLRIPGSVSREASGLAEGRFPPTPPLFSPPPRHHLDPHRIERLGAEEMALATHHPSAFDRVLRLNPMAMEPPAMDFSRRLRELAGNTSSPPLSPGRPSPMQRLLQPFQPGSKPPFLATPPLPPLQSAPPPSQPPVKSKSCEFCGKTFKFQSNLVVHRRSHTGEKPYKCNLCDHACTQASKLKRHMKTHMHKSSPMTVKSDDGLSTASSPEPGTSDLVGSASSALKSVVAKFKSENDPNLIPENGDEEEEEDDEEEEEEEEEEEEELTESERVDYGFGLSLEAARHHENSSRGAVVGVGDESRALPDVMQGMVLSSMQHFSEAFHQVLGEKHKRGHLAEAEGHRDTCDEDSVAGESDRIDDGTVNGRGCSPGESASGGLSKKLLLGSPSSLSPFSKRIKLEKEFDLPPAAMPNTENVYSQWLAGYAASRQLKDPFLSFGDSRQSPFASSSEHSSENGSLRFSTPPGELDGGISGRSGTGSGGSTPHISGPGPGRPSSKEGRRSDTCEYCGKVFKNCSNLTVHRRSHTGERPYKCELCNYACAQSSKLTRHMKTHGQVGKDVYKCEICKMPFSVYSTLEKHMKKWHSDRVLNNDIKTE
UniProt Q86U86: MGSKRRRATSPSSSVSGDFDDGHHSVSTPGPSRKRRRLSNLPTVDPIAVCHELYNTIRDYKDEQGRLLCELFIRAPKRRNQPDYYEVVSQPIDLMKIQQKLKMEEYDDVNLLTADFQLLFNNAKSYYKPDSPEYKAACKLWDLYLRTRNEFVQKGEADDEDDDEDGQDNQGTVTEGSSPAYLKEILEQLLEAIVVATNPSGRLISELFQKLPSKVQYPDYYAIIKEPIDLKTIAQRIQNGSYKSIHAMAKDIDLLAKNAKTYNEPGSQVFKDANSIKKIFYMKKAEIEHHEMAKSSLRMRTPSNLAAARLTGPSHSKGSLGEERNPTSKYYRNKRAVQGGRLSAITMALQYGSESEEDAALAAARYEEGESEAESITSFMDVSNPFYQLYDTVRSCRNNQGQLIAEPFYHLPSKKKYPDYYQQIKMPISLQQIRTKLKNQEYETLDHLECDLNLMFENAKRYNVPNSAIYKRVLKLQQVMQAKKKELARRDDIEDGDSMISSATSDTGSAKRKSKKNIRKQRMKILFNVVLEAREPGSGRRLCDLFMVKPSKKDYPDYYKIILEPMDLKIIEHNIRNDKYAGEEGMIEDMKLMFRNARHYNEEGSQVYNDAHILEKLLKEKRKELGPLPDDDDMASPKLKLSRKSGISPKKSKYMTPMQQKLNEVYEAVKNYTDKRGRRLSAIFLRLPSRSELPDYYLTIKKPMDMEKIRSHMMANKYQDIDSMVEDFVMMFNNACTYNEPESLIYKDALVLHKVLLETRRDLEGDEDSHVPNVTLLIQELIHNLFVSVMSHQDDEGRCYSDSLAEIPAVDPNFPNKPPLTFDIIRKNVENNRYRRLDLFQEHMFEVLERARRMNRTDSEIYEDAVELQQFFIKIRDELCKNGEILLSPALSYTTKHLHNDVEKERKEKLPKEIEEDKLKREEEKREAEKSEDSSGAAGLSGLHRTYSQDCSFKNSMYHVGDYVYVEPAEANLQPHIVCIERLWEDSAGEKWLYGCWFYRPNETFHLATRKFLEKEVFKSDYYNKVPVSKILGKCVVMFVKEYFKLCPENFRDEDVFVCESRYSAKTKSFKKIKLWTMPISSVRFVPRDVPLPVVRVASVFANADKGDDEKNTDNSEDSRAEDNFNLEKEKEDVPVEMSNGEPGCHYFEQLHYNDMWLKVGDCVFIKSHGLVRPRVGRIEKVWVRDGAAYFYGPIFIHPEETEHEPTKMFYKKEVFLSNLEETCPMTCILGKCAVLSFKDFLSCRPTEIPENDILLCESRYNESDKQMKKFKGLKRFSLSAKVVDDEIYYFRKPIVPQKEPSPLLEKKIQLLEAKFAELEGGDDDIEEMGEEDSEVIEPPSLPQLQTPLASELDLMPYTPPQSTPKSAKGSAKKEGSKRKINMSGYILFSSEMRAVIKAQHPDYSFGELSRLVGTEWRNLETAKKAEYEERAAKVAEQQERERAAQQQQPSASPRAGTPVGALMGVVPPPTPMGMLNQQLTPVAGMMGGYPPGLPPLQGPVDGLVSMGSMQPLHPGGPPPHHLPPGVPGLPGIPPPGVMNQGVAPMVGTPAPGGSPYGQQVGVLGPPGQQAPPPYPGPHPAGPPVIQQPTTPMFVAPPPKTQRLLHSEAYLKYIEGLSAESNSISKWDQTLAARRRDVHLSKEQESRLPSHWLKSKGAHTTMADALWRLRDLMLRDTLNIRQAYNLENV
UniProt Q9H8M2: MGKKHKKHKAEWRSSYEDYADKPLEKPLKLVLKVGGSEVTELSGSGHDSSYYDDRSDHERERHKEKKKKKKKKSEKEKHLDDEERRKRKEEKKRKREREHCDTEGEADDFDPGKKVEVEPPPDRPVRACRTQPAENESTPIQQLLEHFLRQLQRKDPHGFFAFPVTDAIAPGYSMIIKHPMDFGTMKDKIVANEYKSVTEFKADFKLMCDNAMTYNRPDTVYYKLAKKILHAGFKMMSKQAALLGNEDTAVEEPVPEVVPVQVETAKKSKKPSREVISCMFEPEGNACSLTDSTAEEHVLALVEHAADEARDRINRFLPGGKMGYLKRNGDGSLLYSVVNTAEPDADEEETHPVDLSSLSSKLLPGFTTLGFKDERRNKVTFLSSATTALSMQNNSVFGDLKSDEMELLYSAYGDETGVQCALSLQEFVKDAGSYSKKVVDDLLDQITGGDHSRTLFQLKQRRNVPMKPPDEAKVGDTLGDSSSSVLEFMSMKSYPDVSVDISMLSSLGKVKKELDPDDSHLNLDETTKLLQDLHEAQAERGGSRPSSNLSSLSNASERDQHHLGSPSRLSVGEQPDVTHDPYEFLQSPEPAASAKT

binding [1] | binding [2] | Substance
binds | binds | BAF180 (from UniProt Q86U86 1-1689)
binds | binds | BRD9 (from UniProt Q9H8M2 1-597)
